Results are given in words; binding and its absence hold for the method and conditions named. For some assays here: A result given as binding can be weak or reduced; the word gives no strength. For some assays here: Sequences can lack the tags named with a protein. For some assays here: Binding seen in cells or lysates may run through a third protein.

We go through four molecules from article PMC9644274.

Assay [1] has as its target GFP-PMTV-TGB2 (potato mop-top virus). Briefly: co-IP; GFP-PMTV-TGB2 coexpressed with mRFP-RTN3 or mRFP-RTN6 in tobacco epidermal leaf cells; precipitated with GFP-Trap (anti-GFP agarose, Chromotek); western blot with anti-RFP and anti-GFP. A general note: Immunoblotting shows a protein as a band on a membrane.
Assay [2] deals with potato mop-top virus triple gene block 2 (PMTV-TGB2), split-ubiquitin fusion in yeast (potato mop-top virus). Briefly: two-hybrid; yeast mating-based split-ubiquitin system (mbSUS); Nub and Cub fusions; colony growth indicates an interaction.
The target in assay [3] is potato virus X triple gene block 2 (PVX-TGB2), split-ubiquitin fusion in yeast (potato virus X). The description is as above.
Assay [4] addresses potato virus X triple gene block 3 (PVX-TGB3), split-ubiquitin fusion in yeast (potato virus X). The description is as above.

B1: mRFP-RTN6 (protein, UniProt Q6DBN4 1-253)
chain: MAEELEKSMHKEESLMEKIADKIHDHDSSSSSDSEHEKPESPSALKAKIYRLFGREKPVHKVLGGGLPADVFLWRDKKLSASVLGVATAIWVLFELVEYHFLSLVCHILIFALAALFLLSNAHAFMNKTPPKIPEIHIKEEHFLMIVSALRNELNQAFVILRSIALGRDLKKFLMVVFGLWIISVVGNWFNFLTLVYICFVVLHTVPMLYEKHEDKVDPVAEKTLKELKKHYMVFDEKVLSKLPVASLKAKLG
For the molecule B1, in assay [1], the binding entry is “binds”.

B2: RTN6 (reticulon 6), split-ubiquitin fusion in yeast (protein, UniProt Q6DBN4 1-253)
chain: B1 chain
As for B2, the binding entry in assay [2] was “no binding”; in assay [3] it was “binds”; in assay [4] it was “binds”.

B3: mRFP-RTN3 (protein, UniProt Q9SH59 1-255)
chain: MAEEHKHEESIMEKISEKIHGHDDSSSSSSDSDDDKNSASLKTKIYRLFGREQPLHKLFGGGKPADIFLWRNKKVSGGVLGAATVSWILFELLEYNLLTLFGHISILALAVLFLWSSASTFIHKSPLHIPEVHIPEDVVLQLASGLRIEINRGFTVLRDIASGRDLKKFLLVIAGLWVLSKVGSSCNFLTLIYIATVLLFTIPVLYEKYEDKVDDFGEKAMREIKKQYVEFDVKVLSKVMSKIPKGAFAFIKKKD
Take B3: the binding result in assay [1] was “binds”.

B4: RTN3 (reticulon 3), split-ubiquitin fusion in yeast (protein, UniProt Q9SH59 1-255)
chain: B3 chain
Regarding B4, the binding entry in assay [2] is reported as “no binding”; in assay [3], “binds”; in assay [4] it was “binds”.
